For this series, the target named is T1, Klenow C2 Streptavidin-fusion protein, P00582.
T1 chain: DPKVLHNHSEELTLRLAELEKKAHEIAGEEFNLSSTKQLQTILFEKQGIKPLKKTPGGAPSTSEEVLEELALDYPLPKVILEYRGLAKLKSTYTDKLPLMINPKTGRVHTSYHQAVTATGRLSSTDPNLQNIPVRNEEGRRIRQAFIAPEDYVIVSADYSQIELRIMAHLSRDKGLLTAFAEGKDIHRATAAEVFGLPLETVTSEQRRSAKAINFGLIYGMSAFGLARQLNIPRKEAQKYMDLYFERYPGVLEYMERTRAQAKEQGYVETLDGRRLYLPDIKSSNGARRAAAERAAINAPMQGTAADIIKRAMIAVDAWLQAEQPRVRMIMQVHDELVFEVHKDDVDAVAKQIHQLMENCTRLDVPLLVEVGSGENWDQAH

B1: Klenow N2 Streptavidin-fusion protein (protein)
chain: VISYDNYVTILDEETLKAWIAKLEKAPVFAFDTETDSLDNISANLVGLSFAIEPGVAAYIPVAHDYLDAPDQISRERALELLKPLLEDEKALKVGQNLKYDRGILANYGIELRGIAFDTMLESYILNSVAGRHDMDSLAERWLKHKTITFEEIAGKGKNQLTFNQIALEEAGRYAAEDADVTLQLHLKMWPDLQKHKGPLNVFENIEMPLVPVLSRIERNGVKI
Consider B1, for which the “QPCR signal (reconstituted Klenow polymerase activity copying the modified Oligo 1 template)” value is recorded as “Combination of both halves of split Klenow with biotinylated antibodies (N2C2+AB) resulted in a substantially better signal than combination of both halves without the antibodies (N2C2)”.
